Reference: the supplement of paper PMC4604168 (melanoma cell lines)
This is one part of the list. Repeats are few or missing, and single values can be far off.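 Imaging used 1,536-well plates; nuclei positive for cleaved PARP by antibody were divided by total DNA-stained nuclei to yield the apoptosis fraction. Doses for screening kept most cells viable, and cell lines differ markedly in resting and induced cleaved-PARP levels.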

Key:
Test in all cases: cleaved PARP positive nuclei fraction relative to DMSO control; melanoma cells; higher = more apoptosis
Conditions in all cases: library dose: low library concentration; 72 h
501Mel = test system: 501Mel
A101D = test system: A101D
A2058 = test system: A2058
A375 = test system: A375
C32 = test system: C32
CBRC008 = test system: CBRC008 (line from a melanoma biopsy)
CBRC014 = test system: CBRC014 (line from a melanoma biopsy)
CBRC016 = test system: CBRC016 (line from a melanoma biopsy)
CBRC017 = test system: CBRC017 (line from a melanoma biopsy)

| SMILES | cleaved PARP positive nuclei fraction (501Mel) [%] | cleaved PARP positive nuclei fraction (A101D) [%] | cleaved PARP positive nuclei fraction (A2058) [%] | cleaved PARP positive nuclei fraction (A375) [%] | cleaved PARP positive nuclei fraction (C32) [%] | cleaved PARP positive nuclei fraction (CBRC008) [%] | cleaved PARP positive nuclei fraction (CBRC014) [%] | cleaved PARP positive nuclei fraction (CBRC016) [%] | cleaved PARP positive nuclei fraction (CBRC017) [%] |
| --- | --- | --- | --- | --- | --- | --- | --- | --- | --- |
| COc1cc([C@@H]2c3cc4c(cc3[C@@H](O[C@@H]3O[C@@H]5CO[C@@H](C)O[C@H]5[C@H](O)[C@H]3O)[C@H]3COC(=O)[C@H]23)OCO4)cc(OC)c1O [etoposide] + CNC(=O)c1cc(Oc2ccc(NC(=O)Nc3ccc(Cl)c(C(F)(F)F)c3)cc2)ccn1 [sorafenib] (first compound 0.02 µM, partner dose 0.4 µM) | 78 | 123 | 108 | 58.5 | 86.3 | 105 | 186 | 33.1 | 95.1 |
| O=C(Nc1cc(C(F)(F)F)cc(C(F)(F)F)c1)c1cc(Cl)ccc1O + O=C(O)[C@@H]1[O][Sb](=[O])([O][Sb]2(=[O])[O][C@H]([C@H](O)CO)[C@H](O)[C@H](C(=O)O)[O]2)[O][C@H]([C@H](O)CO)[C@@H]1O [stibogluconate] (first compound 0.016 µM, partner dose 2 µM) | 299 | 84.9 | 104 | 115 | 77.4 | 52.7 | 205 | 188 | 136 |
| CC[C@]1(O)C[C@H]2CN(CCc3c([nH]c4ccccc34)[C@@](C(=O)OC)(c3cc4c(cc3OC)N(C=O)[C@H]3[C@@](O)(C(=O)OC)[C@H](OC(C)=O)[C@]5(CC)C=CCN6CC[C@]43[C@@H]65)C2)C1 [vincristine] + COc1cc([C@@H]2c3cc4c(cc3[C@@H](O[C@@H]3O[C@@H]5CO[C@@H](C)O[C@H]5[C@H](O)[C@H]3O)[C@H]3COC(=O)[C@H]23)OCO4)cc(OC)c1O [etoposide] (first compound 0.0001 µM, partner dose 0.02 µM) | 104 | 106 | 1040 | 93.8 | 78.8 | 337 | 107 | 283 | 143 |
| O=C(/C=C/c1cccnc1)NCCCCC1CCN(C(=O)c2ccccc2)CC1 + Nc1cccc2c1CN(C1CCC(=O)NC1=O)C2=O [lenalidomide] (first compound 0.01 µM, partner dose 1 µM) | 106 | 91.1 | 147 | 319 | 87.4 | 5610 | 111 | 971 | 386 |
| CC[C@]1(O)C[C@H]2CN(CCc3c([nH]c4ccccc34)[C@@](C(=O)OC)(c3cc4c(cc3OC)N(C=O)[C@H]3[C@@](O)(C(=O)OC)[C@H](OC(C)=O)[C@]5(CC)C=CCN6CC[C@]43[C@@H]65)C2)C1 [vincristine] + O=C(O)[C@@H]1[O][Sb](=[O])([O][Sb]2(=[O])[O][C@H]([C@H](O)CO)[C@H](O)[C@H](C(=O)O)[O]2)[O][C@H]([C@H](O)CO)[C@@H]1O [stibogluconate] (first compound 0.0001 µM, partner dose 2 µM) | 97.6 | 45.8 | 105 | 51.6 | 86.5 | 65.7 | 99.2 | 119 | 120 |
| O=C(/C=C/c1cccnc1)NCCCCC1CCN(C(=O)c2ccccc2)CC1 + C[C@]1(c2nc3c(C(N)=O)cccc3[nH]2)CCCN1 [Veliparib] (first compound 0.01 µM, partner dose 1.4 µM) | 84.9 | 87.4 | 162 | 130 | 85.5 | 2070 | 103 | 150 | 923 |
| Cc1cc(Nc2cc(N3CCN(C)CC3)nc(Sc3ccc(NC(=O)C4CC4)cc3)n2)n[nH]1 [Tozasertib] + CS(=O)(=O)CCNCc1ccc(-c2ccc3ncnc(Nc4ccc(OCc5cccc(F)c5)c(Cl)c4)c3c2)o1 [lapatinib] (first compound 0.006 µM, partner dose 0.8 µM) | 53.1 | 144 | 65.9 | 70.8 | 94.4 | 118 | 95.5 | 147 | 53.1 |
| CCCCCCCCCCCCCCCCCCOP(=O)([O-])OC1CC[N+](C)(C)CC1 [Perifosine] + Nc1ccn([C@@H]2O[C@H](CO)[C@@H](O)C2(F)F)c(=O)n1 [gemcitabine] (first compound 0.4 µM, partner dose 0.0004 µM) | 102 | 45.8 | 148 | 1560 | 35 | 200 | 147 | 202 | 103 |
| O=C(/C=C/c1cccnc1)NCCCCC1CCN(C(=O)c2ccccc2)CC1 + CN1CCN(c2ccc3nc(-c4c(N)c5c(F)cccc5[nH]c4=O)[nH]c3c2)CC1 [Dovitinib] (first compound 0.01 µM, partner dose 0.1 µM) | 85.6 | 52.4 | 113 | 168 | 69.8 | 6150 | 110 | 1600 | 575 |
| O=c1[nH]nc(Sc2ncc([N+](=O)[O-])s2)n1-c1ccc2c(c1)OCCO2 + CC(C)C[C@H](NC(=O)[C@H](Cc1ccccc1)NC(=O)c1cnccn1)B(O)O [Bortezomib] (first compound 0.2 µM, partner dose 0.001 µM) | 149 | 255 | 175 | 88.7 | 83.5 | 127 | 101 | 161 | 111 |
| Cc1cc(Nc2cc(N3CCN(C)CC3)nc(Sc3ccc(NC(=O)C4CC4)cc3)n2)n[nH]1 [Tozasertib] + C[C@]1(c2nc3c(C(N)=O)cccc3[nH]2)CCCN1 [Veliparib] (first compound 0.006 µM, partner dose 1.4 µM) | 68 | 224 | 183 | 170 | 87 | 41.3 | 112 | 154 | 134 |
| COc1cc([C@@H]2c3cc4c(cc3[C@@H](O[C@@H]3O[C@@H]5CO[C@@H](C)O[C@H]5[C@H](O)[C@H]3O)[C@H]3COC(=O)[C@H]23)OCO4)cc(OC)c1O [etoposide] + Cn1cnc2c(F)c(Nc3ccc(Br)cc3Cl)c(C(=O)NOCCO)cc21 [selumetinib] (first compound 0.02 µM, partner dose 0.015 µM) | 2150 | 137 | 115 | 163 | 88.4 | 77.3 | 73.6 | 195 | 111 |
| CC[C@]1(O)C[C@H]2CN(CCc3c([nH]c4ccccc34)[C@@](C(=O)OC)(c3cc4c(cc3OC)N(C=O)[C@H]3[C@@](O)(C(=O)OC)[C@H](OC(C)=O)[C@]5(CC)C=CCN6CC[C@]43[C@@H]65)C2)C1 [vincristine] + NC1(c2ccc(-c3nc4ccn5c(=O)[nH]nc5c4cc3-c3ccccc3)cc2)CCC1 [MK2206] (first compound 0.0001 µM, partner dose 0.4 µM) | 93.1 | 283 | 671 | 315 | 137 | 164 | 88.1 | 125 | 104 |
| Cc1ccc(Nc2nccc(N(C)c3ccc4c(C)n(C)nc4c3)n2)cc1S(N)(=O)=O [Pazopanib] + Cn1cnc2c(F)c(Nc3ccc(Br)cc3Cl)c(C(=O)NOCCO)cc21 [selumetinib] (first compound 0.4 µM, partner dose 0.015 µM) | 2190 | 29.4 | 71.7 | 112 | 93 | 100 | 80.4 | 94.6 | 107 |
| COc1cc([C@@H]2c3cc4c(cc3[C@@H](O[C@@H]3O[C@@H]5CO[C@@H](C)O[C@H]5[C@H](O)[C@H]3O)[C@H]3COC(=O)[C@H]23)OCO4)cc(OC)c1O [etoposide] + Nc1cccc2c1CN(C1CCC(=O)NC1=O)C2=O [lenalidomide] (first compound 0.02 µM, partner dose 1 µM) | 52.6 | 69.4 | 141 | 239 | 89.4 | 66.4 | 93.2 | 125 | 74.3 |
| O=C(/C=C/c1cccnc1)NCCCCC1CCN(C(=O)c2ccccc2)CC1 + Cc1cc(Nc2cc(N3CCN(C)CC3)nc(/C=C/c3ccccc3)n2)n[nH]1 [ENMD2076] (first compound 0.01 µM, partner dose 0.04 µM) | 123 | 343 | 204 | 391 | 188 | 7280 | 100 | 661 | 701 |
| N#CC[C@H](C1CCCC1)n1cc(-c2ncnc3[nH]ccc23)cn1 [ruxolitinib] + Cn1nnc2c(C(N)=O)ncn2c1=O [temozolomide] (first compound 1 µM, partner dose 2 µM) | 69.4 | 228 | 120 | 70.6 | 72.6 | 54.2 | 103 | 118 | 176 |
| O=C(/C=C/c1cccnc1)NCCCCC1CCN(C(=O)c2ccccc2)CC1 + CC1(C)CCC(c2ccc(Cl)cc2)=C(CN2CCN(c3ccc(C(=O)NS(=O)(=O)c4ccc(N[C@H](CCN5CCOCC5)CSc5ccccc5)c(S(=O)(=O)C(F)(F)F)c4)cc3)CC2)C1 [ABT263] (first compound 0.01 µM, partner dose 0.4 µM) | 62.5 | 171 | 127 | 1120 | 303 | 2110 | 6530 | 1570 | 1950 |
| O=C(Nc1cc(C(F)(F)F)cc(C(F)(F)F)c1)c1cc(Cl)ccc1O + C#Cc1cccc(Nc2ncnc3cc(OCCOC)c(OCCOC)cc23)c1 [erlotinib] (first compound 0.016 µM, partner dose 0.8 µM) | 139 | 32 | 157 | 176 | 159 | 383 | 85.1 | 155 | 257 |
| O=C(Nc1cc(C(F)(F)F)cc(C(F)(F)F)c1)c1cc(Cl)ccc1O + Nc1nc(F)nc2c1ncn2[C@@H]1O[C@H](CO)[C@@H](O)[C@@H]1O [fludarabine] (first compound 0.016 µM, partner dose 0.2 µM) | 4170 | 57.6 | 133 | 1040 | 82.9 | 33.6 | 97.5 | 92.2 | 89.5 |
| Cc1cc(Nc2cc(N3CCN(C)CC3)nc(Sc3ccc(NC(=O)C4CC4)cc3)n2)n[nH]1 [Tozasertib] + NC(=O)c1ccc(N(C(N)=O)c2c(F)cccc2F)nc1-c1ccc(F)cc1F [VX702] (first compound 0.006 µM, partner dose 0.4 µM) | 92.4 | 193 | 98.2 | 236 | 87.8 | 24 | 77 | 39.7 | 109 |

Complete entries from above. Values in the order: cleaved PARP positive nuclei fraction (501Mel) [%] | cleaved PARP positive nuclei fraction (A101D) [%] | cleaved PARP positive nuclei fraction (A2058) [%] | cleaved PARP positive nuclei fraction (A375) [%] | cleaved PARP positive nuclei fraction (C32) [%] | cleaved PARP positive nuclei fraction (CBRC008) [%] | cleaved PARP positive nuclei fraction (CBRC014) [%] | cleaved PARP positive nuclei fraction (CBRC016) [%] | cleaved PARP positive nuclei fraction (CBRC017) [%]
O=C(Nc1cc(C(F)(F)F)cc(C(F)(F)F)c1)c1cc(Cl)ccc1O + C#Cc1cccc(Nc2ncnc3cc(OCCOC)c(OCCOC)cc23)c1 [erlotinib] (first compound 0.016 µM, partner dose 0.8 µM) as listed: 139 | 32 | 157 | 176 | 159 | 383 | 85.1 | 155 | 257
O=C(/C=C/c1cccnc1)NCCCCC1CCN(C(=O)c2ccccc2)CC1 + CC1(C)CCC(c2ccc(Cl)cc2)=C(CN2CCN(c3ccc(C(=O)NS(=O)(=O)c4ccc(N[C@H](CCN5CCOCC5)CSc5ccccc5)c(S(=O)(=O)C(F)(F)F)c4)cc3)CC2)C1 [ABT263] (first compound 0.01 µM, partner dose 0.4 µM) as listed: 62.5 | 171 | 127 | 1120 | 303 | 2110 | 6530 | 1570 | 1950
